Measured values published in article PMC7110113, “Termination of non‐coding transcription in yeast relies on both an RNA Pol II CTD interaction domain and a CTD‐mimicking region in Sen1” (The EMBO Journal, 2020).
No constants are given. Whether binding was seen depends on the method and setting. Binding seen in cells or lysates may run through a third protein. A result given as binding can be weak or reduced; the word gives no strength.

T1: Nrd1-TAP (S. cerevisiae) (UniProt P53617)
T1 sequence: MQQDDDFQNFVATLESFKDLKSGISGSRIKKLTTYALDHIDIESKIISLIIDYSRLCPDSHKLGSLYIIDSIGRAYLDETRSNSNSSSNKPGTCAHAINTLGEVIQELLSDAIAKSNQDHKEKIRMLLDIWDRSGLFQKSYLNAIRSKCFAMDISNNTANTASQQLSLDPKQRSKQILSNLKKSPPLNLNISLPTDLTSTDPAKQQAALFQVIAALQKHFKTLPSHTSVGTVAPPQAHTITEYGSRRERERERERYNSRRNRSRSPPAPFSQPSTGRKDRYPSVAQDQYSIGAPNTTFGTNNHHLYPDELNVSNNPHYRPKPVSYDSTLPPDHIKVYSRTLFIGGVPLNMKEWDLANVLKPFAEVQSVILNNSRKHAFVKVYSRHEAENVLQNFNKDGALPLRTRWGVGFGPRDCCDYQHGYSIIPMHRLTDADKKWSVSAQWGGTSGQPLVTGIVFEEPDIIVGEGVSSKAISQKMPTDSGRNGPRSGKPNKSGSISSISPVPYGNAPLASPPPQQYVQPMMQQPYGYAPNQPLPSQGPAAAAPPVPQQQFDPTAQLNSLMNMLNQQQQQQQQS


Key:
Nrd1-TAP (S. cerevisiae) = target: T1, Nrd1-TAP (S. cerevisiae); test: co-IP; TAP-tagged Nrd1 (wt or ∆CID) as bait on IgG Fast Flow Sepharose from yeast extracts; lysis buffer 10 mM sodium phosphate pH 7, 200 mM sodium acetate, 0.25% NP-40, 2 mM EDTA, 1 mM EGTA, 5% glycerol; Sen1 detected by blot (Fig 1A, 1C, EV3E)
[1] = target: His6-GST-tagged Sen1 Cter ∆NIM (S. cerevisiae) (UniProt Q00416); test: pull-down; E. coli extract with His6-GST-Sen1 Cter (wt or ∆NIM) incubated with glutathione sepharose, then mixed with yeast extract expressing Sen1 TAP-Nter; extracts treated with 50 μg/ml RNase A; washed with lysis buffer (10 mM sodium phosphate pH 7, 200 mM sodium acetate, 0.25% NP-40); eluted with glutathione

| binding (Nrd1-TAP (S. cerevisiae)) | binding [1] | Molecule |
| --- | --- | --- |
| no binding |  | Sen1∆Cter (S. cerevisiae) (domain or fragment) |
| binds weakly |  | Sen1∆NIM (from UniProt Q00416) |
|  | binds | Sen1 TAP-Nter (domain or fragment, UniProt Q00416 1-975) MNSNNPDNNNSNNINNNNKDKDIAPNSDVQLATVYTKAKSYIPQIEQVYQGTNPNIQEAKLLGELLQVLAEVPKGTHLFCDPILEPISIFSLTIFSFNEEATATWLKNHFNPILSVCDKCILNFARGKCKMLQHFAIQRHVPHEHVAKFNDIVCQWRVEAVFPILRNISVNDNTGINITNEIETAMYECLCNPHMLRLNKQLKATFEAIFKFFYDTKHRLLDVTNPLSIKTFISGVIFCWCEGSKEENEWSRAFLKDLYSRNFHINLSNLTPDIIEEVYIHILFLQNPANWTEIVVSQFWSRLLPVFNLFDKDVFIEYFQVPKNVESLKKTFKFPLEPIFKMWYNHLSKSYHDKPLDFLLRGLTMFLNKFGSEFWSKIEPFTFHSILDIIFNRDSFPIKLIKIQDNPIVEHQTEVYFQLTGSVTDLLSWTLPFYHALSPSKRIQMVRKVSMAFLRIIANYPSLKSIPKACLMNSATALLRAVLTIKENERAMLYKNDEFETVLLTKTDSRALLNNPLIQDIIIRSASNPNDFYPGLGAASASVATSTMMVLAECIDFDILLLCHRTFKLYSGKPISEIPISTNVLENVTNKIDLRSFHDGPLLAKQLLVSLKNINGLLIVPSNTAVAEAHNALNQKFLLLSTRLMEKFADILPGQLSKILADEDASQGFWSCIFSSDKHLYQAATNILYNTFDVEGRLEGILAILNSNLTVNLKNINVMLQRLINCEFYEPCPRAVRVLMDVVSAFVDPISGVFANFQTLKSQNTEKEFLKFWESCWLFLDTIYKFTLKWASKYDYSELENFTKDTLDLSRSLVDSFREFSDILHDQTKNLLLNVLETFKNMLYWLRLSDEVLLESCVRLIISTSDLAHEKHVKVDDSLVEMMAKYASKAKRFSNKLTEQQASEILQKAKIFNKALTEEVATEAENYRKEKELSRLGKVIDLTDSVPASPSLSPSLSSTIASSSAESRADYLQRK |
